The results in this text go back to paper PMC12561415, “ACSS2/AATF Drives Soluble FasL‐Mediated CD8^+ T Cell Apoptosis in Pancreatic Neuroendocrine Tumors” (Advanced Science, 2025).

Amino acid sequences for entries named in this document (tags omitted).
UniProt Q9NR19: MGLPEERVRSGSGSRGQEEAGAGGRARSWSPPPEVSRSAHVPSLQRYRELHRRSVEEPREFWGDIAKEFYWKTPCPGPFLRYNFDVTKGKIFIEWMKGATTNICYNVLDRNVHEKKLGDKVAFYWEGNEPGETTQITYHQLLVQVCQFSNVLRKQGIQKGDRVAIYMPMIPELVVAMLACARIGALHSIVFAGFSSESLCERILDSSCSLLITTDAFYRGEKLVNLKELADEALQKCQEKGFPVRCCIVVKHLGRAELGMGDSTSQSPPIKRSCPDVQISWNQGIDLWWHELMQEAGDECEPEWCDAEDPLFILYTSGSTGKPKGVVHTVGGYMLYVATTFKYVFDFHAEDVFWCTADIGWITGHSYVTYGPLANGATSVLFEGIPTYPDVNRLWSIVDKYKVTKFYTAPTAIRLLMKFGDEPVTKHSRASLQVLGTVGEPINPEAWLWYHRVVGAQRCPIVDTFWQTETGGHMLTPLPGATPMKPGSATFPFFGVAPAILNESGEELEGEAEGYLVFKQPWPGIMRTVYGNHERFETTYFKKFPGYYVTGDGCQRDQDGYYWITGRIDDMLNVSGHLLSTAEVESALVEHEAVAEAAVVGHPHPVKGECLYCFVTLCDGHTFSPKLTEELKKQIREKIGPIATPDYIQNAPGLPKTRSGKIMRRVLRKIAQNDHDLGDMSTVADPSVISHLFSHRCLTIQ

These are yes or no findings as the source states them, for the method shown. Binding seen in cells or lysates may run through a third protein. A yes stands for co-enrichment or nearness to the bait. Other partners may have been found. Where a sequence is shown, tags or fusion partners need not be part of it.

For this assay, the target named is Flag-ACSS2 (acetyl-CoA synthetase 2) (human) (UniProt Q9NR19). The assay is described as follows: affinity purification with mass spectrometry; whole-cell extract of BON-1 cells with stable Flag-ACSS2 expression (NP-40 lysis buffer, 4 °C); Flag-tag Protein IP Assay Kit with magnetic beads; label-free MS; ACSS2^Flag vs EV.

B1: Recombinant human AATF (natural protein, UniProt Q9NY61 1-560, looked up)
chain: MAGPQPLALQLEQLLNPRPSEADPEADPEEATAARVIDRFDEGEDGEGDFLVVGSIRKLASASLLDTDKRYCGKTTSRKAWNEDHWEQTLPGSSDEEISDEEGSGDEDSEGLGLEEYDEDDLGAAEEQECGDHRESKKSRSHSAKTPGFSVQSISDFEKFTKGMDDLGSSEEEEDEESGMEEGDDAEDSQGESEEDRAGDRNSEDDGVVMTFSSVKVSEEVEKGRAVKNQIALWDQLLEGRIKLQKALLTTNQLPQPDVFPLFKDKGGPEFSSALKNSHKALKALLRSLVGLQEELLFQYPDTRYLVDGTKPNAGSEEISSEDDELVEEKKQQRRRVPAKRKLEMEDYPSFMAKRFADFTVYRNRTLQKWHDKTKLASGKLGKGFGAFERSILTQIDHILMDKERLLRRTQTKRSVYRVLGKPEPAAQPVPESLPGEPEILPQAPANAHLKDLDEEIFDDDDFYHQLLRELIERKTSSLDPNDQVAMGRQWLAIQKLRSKIHKKVDRKASKGRKLRFHVLSKLLSFMAPIDHTTMNDDARTELYRSLFGQLHPPDEGHGD
notes: Recombinant human AATF, the analyte in SPR; also called Che-1
As for B1, the binding entry is recorded as “binds”.
